Patent publication US7737155B2, “Nitrogen-containing heterocyclic compounds and methods of use thereof” (Schering Corporation, priority 2005, dated 2010)
Some of these results come from one statement about several compounds together.

Amino acid sequences for entries named in this document (tags omitted). A change or cut given only in a name is not applied to a line headed by its entry.
UniProt Q8TDS4: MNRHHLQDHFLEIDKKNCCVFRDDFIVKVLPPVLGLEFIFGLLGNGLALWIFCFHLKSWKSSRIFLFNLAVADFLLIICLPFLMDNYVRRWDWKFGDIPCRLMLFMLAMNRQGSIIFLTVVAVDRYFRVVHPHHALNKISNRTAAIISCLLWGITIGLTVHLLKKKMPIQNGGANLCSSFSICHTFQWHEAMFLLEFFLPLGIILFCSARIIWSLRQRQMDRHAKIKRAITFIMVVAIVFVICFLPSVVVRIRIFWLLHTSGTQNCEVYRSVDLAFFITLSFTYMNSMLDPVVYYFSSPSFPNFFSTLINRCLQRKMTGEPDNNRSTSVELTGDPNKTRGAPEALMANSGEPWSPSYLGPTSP

molecular target: recombinant human nicotinic acid receptor (NAR) (Homo sapiens, UniProt Q8TDS4); assay: Nicotinic Acid Receptor Assay: inhibition of forskolin-stimulated cAMP accumulation in CHO cells (MesoScale Discovery cAMP kit); assay type: cell-based; conditions: CHO cells expressing recombinant human NAR
Method: The nicotinic acid receptor agonist activity of the inventive compounds was determined by following the inhibition of forskolin-stimulated cAMP accumulation in cells using the MesoScale Discovery cAMP detection kit following the manufacture's protocol. Briefly, Chinese Hamster Ovary (CHO) cells expressing recombinant human nicotinic acid receptor (NAR) were harvested enzymatically, washed 1× in phosphate buffered saline (PBS) and resuspended in PBS containing 0.5 mM IBMX at 3×10^6 cells/mL. Ten μL of cell suspension was added to each well of a 384-well plate which contained 10 μL of test compounds. Test compounds were diluted with PBS containing 6 μM of forskolin. Plates were incubated for 30 minutes at room temperature after the addition of cells. Lysis buffer containing cAMP-Tag was added to each well (10 μL/well) as per the manufacturer's protocol. Plates were then incubated from 45 minutes to overnight. Prior to reading, 10 μL of read buffer was added to each well, and the plate was read in a Sector 6000 plate imager. The signal was converted to cAMP concentration using a standard curve run on each plate.

**Q.** `CCc1cc(=O)oc2[nH]c(=O)n(CC)c(=O)c12` [Compound 39] was tested. Which EC50 did it give?
**A.** ≤ 100 nM

**Q.** For `CC1CCC(Cc2cc(=O)oc3[nH]c(=O)[nH]c(=O)c23)CC1` (stereo not shown) [Compound 127], which EC50 is on record?
**A.** ≤ 100 nM

**Q.** With `O=c1[nH]c(=O)c2c(CCCCC(F)(F)F)cc(=O)oc2[nH]1` [Compound 112] as the compound, how does the EC50 read?
**A.** ≤ 100 nM

**Q.** How did the EC50 turn out when `O=c1[nH]c(=O)c2c(CC3CCCC3)cc(=O)oc2[nH]1` [Compound 104] was run?
**A.** ≤ 100 nM

**Q.** Which EC50 does the source give for `O=c1[nH]c(=O)c2c(CCCCl)cc(=O)oc2[nH]1` [Compound 111] here?
**A.** ≤ 100 nM

**Q.** `CCc1cc(=O)oc2nc(Cl)nc(Cl)c12` [Example 5] was tested. Which EC50 did it give?
**A.** ≤ 100 nM

**Q.** How did the EC50 turn out when `C=CCCCc1cc(=O)oc2[nH]c(=O)[nH]c(=O)c12` [Compound 115] was run?
**A.** ≤ 100 nM

**Q.** `C#CCCCc1cc(=O)oc2[nH]c(=O)[nH]c(=O)c12` [Compound 128] was tested. Which EC50 did it give?
**A.** ≤ 100 nM

**Q.** How did the EC50 turn out when `O=c1[nH]c(=O)c2c(CCC3CCCC3)cc(=O)oc2[nH]1` [Compound 125] was run?
**A.** ≤ 100 nM

**Q.** For `CCc1cc(=O)[nH]c2[nH]c(=O)n(C3CCC3)c(=O)c12` [Compound 101], which EC50 is on record?
**A.** ≤ 100 nM

**Q.** `O=c1[nH]c(=O)c2c(CC3C=CCC3)cc(=O)oc2[nH]1` (stereo not shown) [Compound 121] was tested. Which EC50 did it give?
**A.** ≤ 100 nM

**Q.** With `C=CCCCCc1cc(=O)oc2[nH]c(=O)[nH]c(=O)c12` [Compound 114] as the compound, how does the EC50 read?
**A.** ≤ 100 nM

**Q.** With `C#CCCc1cc(=O)oc2[nH]c(=O)[nH]c(=O)c12` [Compound 120] as the compound, how does the EC50 read?
**A.** ≤ 100 nM

**Q.** Which EC50 does the source give for `O=c1[nH]c(=O)c2c(CC3CCCCC3)cc(=O)oc2[nH]1` [Compound 103] here?
**A.** ≤ 100 nM

**Q.** How did the EC50 turn out when `C=CCCc1cc(=O)oc2[nH]c(=O)[nH]c(=O)c12` [Compound 105] was run?
**A.** ≤ 100 nM

**Q.** Which EC50 does the source give for `O=c1[nH]c(=O)c2c(Cc3ccccc3F)cc(=O)oc2[nH]1` [Compound 133] here?
**A.** ≤ 100 nM

**Q.** With `O=c1[nH]c(=O)c2c(CCC3CCCCC3)cc(=O)oc2[nH]1` [Compound 124] as the compound, how does the EC50 read?
**A.** ≤ 100 nM

**Q.** Which EC50 does the source give for `O=c1[nH]c(=O)c2c(Cc3ccccc3)cc(=O)oc2[nH]1` [Compound 132] here?
**A.** ≤ 100 nM

**Q.** With `O=c1[nH]c(=O)c2c(C3CCC3)cc(=O)oc2[nH]1` [Compound 131] as the compound, how does the EC50 read?
**A.** ≤ 100 nM

**Q.** For `O=c1[nH]c(=O)c2c(CC3CCCCCC3)cc(=O)oc2[nH]1` [Compound 130], which EC50 is on record?
**A.** ≤ 100 nM

**Q.** For `O=c1[nH]c(=O)c2c(Cc3ccsc3)cc(=O)oc2[nH]1` [Compound 135], which EC50 is on record?
**A.** ≤ 100 nM

**Q.** With `CCc1cc(=O)oc2nc(OCc3ccc[n+]([O-])c3)[nH]c(=O)c12` [Compound 71] as the compound, how does the EC50 read?
**A.** ≤ 100 nM

**Q.** For `CCc1cc(=O)oc2[nH]c(=O)n(CC(=O)c3ccccc3)c(=O)c12` [Compound 29], which EC50 is on record?
**A.** ≤ 100 nM

**Q.** Which EC50 does the source give for `CCc1cc(=O)oc2nc([S+](C)[O-])[nH]c(=O)c12` (stereo not shown) [Example 10] here?
**A.** ≤ 100 nM

**Q.** How did the EC50 turn out when `O=c1[nH]c(=O)c2c(Cc3cccc(F)c3)cc(=O)oc2[nH]1` [Compound 134] was run?
**A.** ≤ 100 nM

**Q.** How did the EC50 turn out when `O=c1[nH]c(=O)c2c(CCC(F)(F)F)cc(=O)oc2[nH]1` [Compound 109] was run?
**A.** ≤ 100 nM

**Q.** For `O=c1[nH]c(=O)c2c(Cc3cccs3)cc(=O)oc2[nH]1` [Compound 113], which EC50 is on record?
**A.** ≤ 100 nM

**Q.** With `C/C=C/CCc1cc(=O)oc2[nH]c(=O)[nH]c(=O)c12` [Compound 106] as the compound, how does the EC50 read?
**A.** ≤ 100 nM
